1 compound from patent US20080206374A1 (priority 2003, published 2008) can be followed below.

Each structure is given as a SMILES string. Counter-ions that a name gives are not always drawn.

This data set concerns experimental acute myocardial ischemia of dogs. In words: experimental acute myocardial ischemia and myocardial infarction of anesthetized dogs (coronary artery ligature). Format: in vivo. To be noted: Dose/kg 0.5 mg, femoral vein. As to the method:
The experimental medicaments were prepared with physiological saline to the same volume (50 ml), and injected through femoral vein at a speed of 5 ml/min with the computer minim syringe pump (Type AJ-5803, Shanghai).
The animals were anaesthetized with pentobarbital sodium (30 mg/kg, i.v), and connected with an electric respirator after tracheal intubation. The chest was opened in the position of the 4th left rib to expose the heart. The pericardium was cut out to make a pericardial bed. The laevorotatory branch of coronary artery was separated and a probe of an electromagnetic flowmeter (Type MF-1100) was placed in to measure the blood flow of coronary artery. […] The coronary artery was ligated for 15 minutes and recorded as a control value before medicaments administration. […] At 51 15, 30, 45, 60, 90, 120, and 180 minutes after medicament administration, 30 measuring points of the epicardium electrocardiogram were recorded. […] After intubation through the […] into the coronary vein sinus, the blood oxygen content of coronary vein was measured by a blood oxygen instrument (Type AVL912, Swiss) while the blood samples were taken before ischemia, ischemia 15 min (before administration), at 15, 30, 60, 120, and 180 minutes after medicament administration. […] It was calculated together with the blood flow of coronary artery to measure the myocardial oxygen consumption: […]

With `COc1ccc([C@@H]2Sc3ccccc3N(CCN(C)C)C(=O)[C@@H]2OC(C)=O)cc1` [Herbesser, Diltiazem Hydrochloride], where the note is “180 minutes”, the “Ventricular Area” value was 3883.1 ± 859.8 mm^2. For the same compound, under “heart taken 180 minutes after administration”, the “Heart Area” value came out at 11838.0 ± 2981.1 mm^2.
